Results as given in paper doi:10.1101/2021.08.20.457117.
These are yes or no findings as the source states them, for the method shown. Binding seen in cells or lysates may run through a third protein.

By UniProt entry, the sequences of proteins in these tests, tags left out.
UniProt Q9UKV8: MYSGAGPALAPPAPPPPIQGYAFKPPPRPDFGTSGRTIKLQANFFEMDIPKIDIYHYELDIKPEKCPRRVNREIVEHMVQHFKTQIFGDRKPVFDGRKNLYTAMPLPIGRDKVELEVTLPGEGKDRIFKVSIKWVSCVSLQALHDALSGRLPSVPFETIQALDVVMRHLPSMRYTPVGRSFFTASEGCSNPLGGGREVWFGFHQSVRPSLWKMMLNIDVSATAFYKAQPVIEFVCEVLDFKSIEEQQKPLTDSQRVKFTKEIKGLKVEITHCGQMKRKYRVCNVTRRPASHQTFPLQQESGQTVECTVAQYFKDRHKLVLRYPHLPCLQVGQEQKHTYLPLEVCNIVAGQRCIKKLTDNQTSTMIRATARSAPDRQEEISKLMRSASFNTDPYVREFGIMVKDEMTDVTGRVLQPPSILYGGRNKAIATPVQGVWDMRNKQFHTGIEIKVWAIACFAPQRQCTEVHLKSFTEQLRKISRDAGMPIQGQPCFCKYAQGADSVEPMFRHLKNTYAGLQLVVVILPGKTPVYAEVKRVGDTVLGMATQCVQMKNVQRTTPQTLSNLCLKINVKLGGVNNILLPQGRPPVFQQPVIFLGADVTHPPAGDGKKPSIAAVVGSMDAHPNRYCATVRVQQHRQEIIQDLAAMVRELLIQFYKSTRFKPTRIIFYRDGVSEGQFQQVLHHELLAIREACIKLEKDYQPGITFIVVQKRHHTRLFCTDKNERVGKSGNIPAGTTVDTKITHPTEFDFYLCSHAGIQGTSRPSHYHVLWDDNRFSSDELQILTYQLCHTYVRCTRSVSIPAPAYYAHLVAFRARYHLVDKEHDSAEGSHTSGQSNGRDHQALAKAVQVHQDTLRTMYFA

Molecular target: AGO2 (human (endogenous in A549)) (UniProt Q9UKV8)
Experiment: co-IP

binding: no binding
B1: XRN2 (enzyme, UniProt Q9H0D6 1-950)
chain: MGVPAFFRWLSRKYPSIIVNCVEEKPKECNGVKIPVDASKPNPNDVEFDNLYLDMNGIIHPCTHPEDKPAPKNEDEMMVAIFEYIDRLFSIVRPRRLLYMAIDGVAPRAKMNQQRSRRFRASKEGMEAAVEKQRVREEILAKGGFLPPEEIKERFDSNCITPGTEFMDNLAKCLRYYIADRLNNDPGWKNLTVILSDASAPGEGEHKIMDYIRRQRAQPNHDPNTHHCLCGADADLIMLGLATHEPNFTIIREEFKPNKPKPCGLCNQFGHEVKDCEGLPREKKGKHDELADSLPCAEGEFIFLRLNVLREYLERELTMASLPFTFDVERSIDDWVFMCFFVGNDFLPHLPSLEIRENAIDRLVNIYKNVVHKTGGYLTESGYVNLQRVQMIMLAVGEVEDSIFKKRKDDEDSFRRRQKEKRKRMKRDQPAFTPSGILTPHALGSRNSPGSQVASNPRQAAYEMRMQNNSSPSISPNTSFTSDGSPSPLGGIKRKAEDSDSEPEPEDNVRLWEAGWKQRYYKNKFDVDAADEKFRRKVVQSYVEGLCWVLRYYYQGCASWKWYYPFHYAPFASDFEGIADMPSDFEKGTKPFKPLEQLMGVFPAASGNFLPPSWRKLMSDPDSSIIDFYPEDFAIDLNGKKYAWQGVALLPFVDERRLRAALEEVYPDLTPEETRRNSLGGDVLFVGKHHPLHDFILELYQTGSTEPVEVPPELCHGIQGKFSLDEEAILPDQIVCSPVPMLRDLTQNTVVSINFKDPQFAEDYIFKAVMLPGARKPAAVLKPSDWEKSSNGRQWKPQLGFNRDRRPVHLDQAAFRTLGHVMPRGSGTGIYSNAAPPPVTYQGNLYRPLLRGQAQIPKLMSNMRPQDSWRGPPPLFQQQRFDRGVGAEPLLPWNRMLQTQNAAFQPNQYQMLAGPGGYPPRRDDRGGRQGYPREGRKYPLPPPSGRYNWN
